# Data published in publication PMC7819943, “Rice protein-binding microarrays: a tool to detect cis-acting elements near promoter regions in rice”.
# Sequences of proteins named here, by UniProt entry; tags and fusion partners are left off.
# UniProt Q0JBA9, entry or part of it: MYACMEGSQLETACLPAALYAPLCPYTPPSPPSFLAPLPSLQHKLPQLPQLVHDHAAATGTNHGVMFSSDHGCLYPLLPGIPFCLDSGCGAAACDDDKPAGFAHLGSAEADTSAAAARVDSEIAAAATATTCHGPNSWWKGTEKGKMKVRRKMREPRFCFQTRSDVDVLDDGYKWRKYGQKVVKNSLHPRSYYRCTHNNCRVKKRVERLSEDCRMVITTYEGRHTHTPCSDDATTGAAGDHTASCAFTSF
# The other results are listed elsewhere or left out.
# Target: OsWRKY34 (Oryza sativa, UniProt Q0JBA9 1-250)
# Assay: protein-binding microarray (RPBM); PBS, 2% BSA, 51.3 ng/ul salmon testes DNA, 50 uM zinc acetate, 200 nM TF, 25 C, 1 h; high values mean tight binding
# Conditions: protein: recombinant; tags: N-terminal polyhistidine and DsRed monomer fusion (pET32a); label: CyDye5-dUTP incorporated in the synthesized complementary strand; 3' TTTTT single-stranded linker to array surface; dsDNA, one strand shown
# Summary of the method: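 In PBS with 2% BSA, salmon testes DNA and 50 µM zinc acetate, 200 nM protein was incubated on a custom Agilent array at 25 °C for 1 h and then washed off. The array had been made double-stranded by primer extension with Cy5-dUTP and blocked with 2% BSA. The proteins were transcription factors fused N-terminally to polyhistidine and DsRed, expressed in E. coli BL21-CodonPlus and purified on Ni–NTA. The binding signal is per-feature fluorescence intensity (arbitrary units) from an Axon 4000B scanner.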
row,Sequence,binding signal
1,GTCACATTTTAAATGCAGTTGAGGGTTTATGTGTTCAATACGGAGTCACCTAGTGCAG,8280 fluorescence intensity (a.u.)
2,CCAACCGTGTTATAAGTCGATTTAATTATTCTCTAGCTACCGGAGTCACCTAGTGCAG,9210 fluorescence intensity (a.u.)
3,CAGCGACGGTGGGGAGGTGGGCGTGGGCGGTTGCCGGCGGCGGAGTCACCTAGTGCAG,11200 fluorescence intensity (a.u.)
4,CGACACTCCACGTTCCAGTCGTCGCAGTCCCGGTGCGCGGCGGAGTCACCTAGTGCAG,8610 fluorescence intensity (a.u.)
5,GGCGCGGCAGTCCGCTCAATCCCTCATCTTCTTCTGTCCTCGGAGTCACCTAGTGCAG,11200 fluorescence intensity (a.u.)
6,CCGGACATGATGCCCAAACATTTCCGCATTTCCGCTCCTCCGGAGTCACCTAGTGCAG,9360 fluorescence intensity (a.u.)
7,TGGGTTTGTGGGTTATGTTTCGGTGCGTGCCGATAGTATACGGAGTCACCTAGTGCAG,14300 fluorescence intensity (a.u.)
8,ATTTGTCAGTTACTAAACAGTACCACACACACCTTGTTATCGGAGTCACCTAGTGCAG,9820 fluorescence intensity (a.u.)
9,ATTTACCGGCCTCACTTCCCAGCCCGACTGGCAACAATTACGGAGTCACCTAGTGCAG,10600 fluorescence intensity (a.u.)
10,TTTAGCACTGTTCATGTTCAACATTTGACCGTTCGTCTTACGGAGTCACCTAGTGCAG,11400 fluorescence intensity (a.u.)
11,CGACGTTGTTCAGGTGGTCTCAACCTTTTTCTTGGTTTATCGGAGTCACCTAGTGCAG,10300 fluorescence intensity (a.u.)
12,CTGTAATGAAGTTCTGAGTGCCTTGTTACTTTATCACTTCCGGAGTCACCTAGTGCAG,8760 fluorescence intensity (a.u.)
13,TCTCCATCACCACCAATCTTTATCAACTTCGACAACTTCCCGGAGTCACCTAGTGCAG,9590 fluorescence intensity (a.u.)
14,ACGTCCTATCATGAATTTTGCCTTTGTCGTCCTGCAACCACGGAGTCACCTAGTGCAG,8280 fluorescence intensity (a.u.)
15,CCATATCATTTGACCAACTGTAAAAGAATGCTCATTTCCCCGGAGTCACCTAGTGCAG,8160 fluorescence intensity (a.u.)
16,TTCAACTGCTCTCAACCTGATGCCTTGTATGAGATCAGAACGGAGTCACCTAGTGCAG,9240 fluorescence intensity (a.u.)
17,ACGTCTTCTGCATGATCATCGTGCGCCGTCCCAATAATTCCGGAGTCACCTAGTGCAG,11300 fluorescence intensity (a.u.)
18,GATTGGCTATAAGTTTATCCTTATTTTCTTCATCCTCTCTCGGAGTCACCTAGTGCAG,12900 fluorescence intensity (a.u.)
19,GTTGGGCTTCCTTATTGGGTTGGGCTACCTGTCTGATTTTCGGAGTCACCTAGTGCAG,16600 fluorescence intensity (a.u.)
20,ATGTTAACTTGCTCACTATATGGTTCATCACGTCAGTGTCCGGAGTCACCTAGTGCAG,8090 fluorescence intensity (a.u.)
21,GCTGAGGTTGTTCTAGACATGGCTGTGTTATGCCTTTTGTCGGAGTCACCTAGTGCAG,9590 fluorescence intensity (a.u.)

# As entered above.
# TCTCCATCACCACCAATCTTTATCAACTTCGACAACTTCCCGGAGTCACCTAGTGCAG | binding signal: 9590 fluorescence intensity (a.u.)
# ATTTACCGGCCTCACTTCCCAGCCCGACTGGCAACAATTACGGAGTCACCTAGTGCAG | binding signal: 10600 fluorescence intensity (a.u.)
# CTGTAATGAAGTTCTGAGTGCCTTGTTACTTTATCACTTCCGGAGTCACCTAGTGCAG | binding signal: 8760 fluorescence intensity (a.u.)
# TTTAGCACTGTTCATGTTCAACATTTGACCGTTCGTCTTACGGAGTCACCTAGTGCAG | binding signal: 11400 fluorescence intensity (a.u.)

# Additional entries

row,Sequence,binding signal
1,AGCTTTCCCTTGTTAAGTACCGAGCTTTGATTGTTTGTTACGGAGTCACCTAGTGCAG,8610 fluorescence intensity (a.u.)
2,ACCGGCACCTATAGGCCTTTTTCGGGTTTTCCCACCTCCACGGAGTCACCTAGTGCAG,8550 fluorescence intensity (a.u.)
3,CCCCGCTAAGCGCCCACCACCTGTTCGACGGAAACCCCAGCGGAGTCACCTAGTGCAG,8200 fluorescence intensity (a.u.)
4,CTCCTAATAATATTACACATATCTGCAAAGTCTCATATTCCGGAGTCACCTAGTGCAG,8180 fluorescence intensity (a.u.)
5,CTGTTACCGGTTGACCAAAACAAGGCATATATCGAAATTCCGGAGTCACCTAGTGCAG,8070 fluorescence intensity (a.u.)
6,GCTGCTGATTTCTGAGTTTTTTTTTTCACAAAGACCTGACCGGAGTCACCTAGTGCAG,8030 fluorescence intensity (a.u.)
7,ACCACACGAACGCTTCGTAGATGACACAGGCACATACATCCGGAGTCACCTAGTGCAG,8060 fluorescence intensity (a.u.)
8,GTGGTGGTGCTGTTGGATTAAGAGGTTTCTTTCAGAGATTCGGAGTCACCTAGTGCAG,9260 fluorescence intensity (a.u.)
9,TTGGATCCCCGCCAAACATTGCCTCGCCAAACATGCGGCTCGGAGTCACCTAGTGCAG,8050 fluorescence intensity (a.u.)
10,CATCTCCGCCGGCCGCCGTCCTCGCCATCTTCGCCGTCCTCGGAGTCACCTAGTGCAG,12600 fluorescence intensity (a.u.)
11,TCCGGAACGAAACGGCGGGGTTTCTTTTTCTTTTGTTTCGCGGAGTCACCTAGTGCAG,9400 fluorescence intensity (a.u.)
12,TGTGCGTTTAGAACTTTCGGCCCATCTCCATCTATAAAATCGGAGTCACCTAGTGCAG,8360 fluorescence intensity (a.u.)
13,GTGCTACTCCATATACGTATGGCTGGTTTGGTTGGTTGAGCGGAGTCACCTAGTGCAG,21400 fluorescence intensity (a.u.)
14,AACTCATCGTGGCCCACAATCGCGCTGTTTTTATTGACCACGGAGTCACCTAGTGCAG,8620 fluorescence intensity (a.u.)
15,TGTGTGAATGTGTGATCCGTTGCCTAGAGTTAATTTTATACGGAGTCACCTAGTGCAG,8260 fluorescence intensity (a.u.)
16,CAAACTGTTTGGTCAAAGTCAAACTGTTTCAAGTTTGACTCGGAGTCACCTAGTGCAG,8070 fluorescence intensity (a.u.)
17,CAGGCCACCGTCTCTGCTTGACTGCTTCCTGCAACCATCTCGGAGTCACCTAGTGCAG,8460 fluorescence intensity (a.u.)
18,AATGGTTTTATCGTTTTACGTGTGTACACCACTTATATATCGGAGTCACCTAGTGCAG,8060 fluorescence intensity (a.u.)
19,AGCACTATTGATGGTTGGTGGTAAGTGGTTTTCAAAAGATCGGAGTCACCTAGTGCAG,9400 fluorescence intensity (a.u.)
20,AACTTTTATGTTCATGACTTTTTCAGCTGAAATTATTTACCGGAGTCACCTAGTGCAG,8420 fluorescence intensity (a.u.)
21,AACCACACCACACTGGTCTCTACCTTCCTTTCTTGCTTTCCGGAGTCACCTAGTGCAG,8610 fluorescence intensity (a.u.)

row,Sequence,binding signal
1,CATCCCTCCGGAACCTCCACTACTACTCGCCCCACCAATGCGGAGTCACCTAGTGCAG,8470 fluorescence intensity (a.u.)
2,GAGTAGAGGTGGGAGGAAGCGGTGGTGTGGTGGGGTGGGGCGGAGTCACCTAGTGCAG,22100 fluorescence intensity (a.u.)
3,AAGACGAATGATCAAACACGTACTAAAAAAGTCAACGGTGCGGAGTCACCTAGTGCAG,11600 fluorescence intensity (a.u.)
4,ACTGCCTTTGTTATATTACCACATGCACACACTCTCTCTCCGGAGTCACCTAGTGCAG,9200 fluorescence intensity (a.u.)
5,GGACCGTTCTTGCTTCTTTTATATATGCATTTGAGTGAAGCGGAGTCACCTAGTGCAG,9110 fluorescence intensity (a.u.)
6,CTTTTACTATTGCGCATCACCTCTTTGCACTGCGTTATTACGGAGTCACCTAGTGCAG,11800 fluorescence intensity (a.u.)
7,CTTTCCAACGTTGGTGAATCATGATCGGTCAATTTGCAACCGGAGTCACCTAGTGCAG,8740 fluorescence intensity (a.u.)
8,TGCAATGTACTTTGCATGCGTCACACGCCCTTGTCAAGAACGGAGTCACCTAGTGCAG,8160 fluorescence intensity (a.u.)
9,CTTTAATCTACTACGTTTTCTTAGCTCAAAACACACACAACGGAGTCACCTAGTGCAG,9060 fluorescence intensity (a.u.)
10,TTCTTGTATCTTTCTTGATGCAACCATCGATCCAACCATCCGGAGTCACCTAGTGCAG,8480 fluorescence intensity (a.u.)
11,TTTATTCCCTACCGCCGCTCCACCACTCGCTTCCCTTTTTCGGAGTCACCTAGTGCAG,10200 fluorescence intensity (a.u.)
12,TTTACATTTTCTGTACTTTCTGGTCATCATTTGCTATTTTCGGAGTCACCTAGTGCAG,9580 fluorescence intensity (a.u.)
13,AACTAAACACGGCCAATGTATTTCTAATATATATATATATCGGAGTCACCTAGTGCAG,8250 fluorescence intensity (a.u.)
14,TTCCCATTCACAACTTTGCTGATTTTGTTTTTATTTTAGTCGGAGTCACCTAGTGCAG,8870 fluorescence intensity (a.u.)
15,ACTCACAAAGCAATACAAGTCTTTTCTGCACACTTTGTCCCGGAGTCACCTAGTGCAG,9630 fluorescence intensity (a.u.)
16,GTCAACCGGGAATTTCCGTGGCCGTTTTTCTACTCCTTTCCGGAGTCACCTAGTGCAG,9040 fluorescence intensity (a.u.)
17,GCCGGGGCCGGGGCGGGCGTGGGCCCCTTCGCTCCGATGGCGGAGTCACCTAGTGCAG,8590 fluorescence intensity (a.u.)
18,CTGGTTTTGTGGTTGGGGACGATTTTGTAACTCGATGACACGGAGTCACCTAGTGCAG,13500 fluorescence intensity (a.u.)
19,AGCCCTGGTACTTTTTCGAACCCTTTGGCACCTGATATCTCGGAGTCACCTAGTGCAG,9150 fluorescence intensity (a.u.)
20,ATTTTTTTTCTAGTCAAACTTTGTTAAGTTTGACCAAAATCGGAGTCACCTAGTGCAG,9790 fluorescence intensity (a.u.)
21,GAGCGGGGCGGGGCTGCATTTGGCGTCGCGATGGACCTCACGGAGTCACCTAGTGCAG,12600 fluorescence intensity (a.u.)

row,Sequence,binding signal
1,CCTACTCCATATGCTTTTCCTAAACCCATCACCTATCCAACGGAGTCACCTAGTGCAG,10700 fluorescence intensity (a.u.)
2,TATTCGTGATATCTGCTGGGTACCATTAAAATTGCTATGACGGAGTCACCTAGTGCAG,8170 fluorescence intensity (a.u.)
3,TAGCTTAATATTTTTTTTCTCGCTAGCTTTATTTAAAATGCGGAGTCACCTAGTGCAG,8170 fluorescence intensity (a.u.)
4,AGCTTTAGTTGTCGCCGACCAGATTGACCACCAGTTCCAACGGAGTCACCTAGTGCAG,8250 fluorescence intensity (a.u.)
5,CATCATATACGTTTTACGCGCCTCGATCAGAAATAAGTTCCGGAGTCACCTAGTGCAG,10600 fluorescence intensity (a.u.)
6,CGAACCTCTTGCTTCTTTTCTGTAGCTTTCTAATGTTGTTCGGAGTCACCTAGTGCAG,10900 fluorescence intensity (a.u.)
7,GGCGATCGGCTTGGTGTGTGCTGTGTTATCCCAGTGCCCGCGGAGTCACCTAGTGCAG,10500 fluorescence intensity (a.u.)
8,ATGGTTAGATTCCTTGTGATCAAGCTAGCTTACCCAAATTCGGAGTCACCTAGTGCAG,8160 fluorescence intensity (a.u.)
9,GTTTATCCGCAAGAAAGTTTTTACACGTCCTCGCAAATTGCGGAGTCACCTAGTGCAG,8220 fluorescence intensity (a.u.)
10,GCCGCTGCTCCCTCGTCGCCTGCGCCCGCTCGTGTGCCGCCGGAGTCACCTAGTGCAG,8330 fluorescence intensity (a.u.)
11,ACCCTCTTCTTCGCCCGCCGCCTGCGTGTCGCGCCGATCTCGGAGTCACCTAGTGCAG,14300 fluorescence intensity (a.u.)
12,GCCTTAGTGTCACCGATCATTTCCCATTCACAACTTTGCTCGGAGTCACCTAGTGCAG,10100 fluorescence intensity (a.u.)
13,ATGAATCGTTGACCGTTGAGACTTGAGAATTGGATTTACCCGGAGTCACCTAGTGCAG,13400 fluorescence intensity (a.u.)
14,CCCACTTCTTCCTTCCTGCGCGCCTCTCCAAACCACCATGCGGAGTCACCTAGTGCAG,9090 fluorescence intensity (a.u.)
15,GTACTCCTTTGGTTTCCCTTTTTTTTATGTATGTGATTAACGGAGTCACCTAGTGCAG,10100 fluorescence intensity (a.u.)
16,GAATTCATCTCATCTCATCTGATTTCGGTGGTGTTTGGATCGGAGTCACCTAGTGCAG,8160 fluorescence intensity (a.u.)
17,CGGATTTGCATCTTGTATTTTTTTTGTTTCATATTTCTCACGGAGTCACCTAGTGCAG,8570 fluorescence intensity (a.u.)
18,CAAACATACTTCTACGTTACATGCTCCTACTAGTCCTCGCCGGAGTCACCTAGTGCAG,8900 fluorescence intensity (a.u.)
19,CGTCACCATCATTCCAACGTGATAAACATGTTGCCATGCACGGAGTCACCTAGTGCAG,8140 fluorescence intensity (a.u.)
20,CATGTCATCGATTTTCCTTCAATATATAGCACTTCCGTTACGGAGTCACCTAGTGCAG,8620 fluorescence intensity (a.u.)
21,GCGGCGGGGTGTCGCGGTGGTGGGTGAAGGCGACGTCGACCGGAGTCACCTAGTGCAG,9190 fluorescence intensity (a.u.)
